Taken from: PubChem BioAssay AID686938 (Drosophila RNAi Screening Center, 2013)

Test: 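Looking for CRAC channel components and the factors controlling them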 (primary screen)
System: Drosophila S2R+ cells
Reagents: long dsRNA against Drosophila genes, about 0.25 µg dsRNA per well, roughly 10,000 cells
Timing: 5 days of knock-down before the calcium assay
Challenge: thapsigargin (SERCA pump blocker) to empty calcium stores; entry signal taken 4 min after adding it
Measured: 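Per-well fluo-4 fluorescence in two replicates, unnormalised, measured in resting cells and 4 min after store depletion by the SERCA blocker thapsigargin; ratio of the two present in few wells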
Reading the numbers: calcium entry signal: higher = stronger calcium signal after store depletion; entry to resting ratio: higher = more calcium entry relative to resting level; resting calcium signal: higher = higher resting calcium signal
Rule for the call: 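Hit if the duplicate-averaged plate z-score for entry over resting signal is under −3; wells with weak total dye signal (Fmax z < −2) or more than 5 off-targets removed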
Calls: active = strongly reduced calcium entry; inactive = no strong reduction
In all, the deposit lists about 23,000 reagents; below is a random part of those that have a named target and a result. Over the whole deposit, 75 (0.33%) got an active call. 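Raw plate signals without normalisation; calls rest on plate z-scores that were not deposited; ratio present for only 364 wells.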 Reagents against one gene are numbered here. A plus sign joins genes that one reagent is predicted to hit. The record does not give: the dose of the treatment.

The first 3 records, to show the layout:
target gene | reagent | calcium entry signal, replicate 1 (fluorescence units) | calcium entry signal, replicate 2 (fluorescence units) | entry to resting ratio | resting calcium signal, replicate 1 (fluorescence units) | resting calcium signal, replicate 2 (fluorescence units) | Outcome
ng2 (new glue 2) | 1 | 5.46e7 | 5.17e7 | 2.1 | 2.65e7 | 2.15e7 | inactive
lsn (larsen) | 1 | 3.91e7 | 3.57e7 | – | 6.06e7 | 1.79e7 | inactive
CG12984 | 1 | 3.11e7 | 5.11e7 | – | 1.53e7 | 2.25e7 | inactive

Main list, from the start:
target gene | reagent | calcium entry signal, replicate 1 (fluorescence units) | calcium entry signal, replicate 2 (fluorescence units) | entry to resting ratio | resting calcium signal, replicate 1 (fluorescence units) | resting calcium signal, replicate 2 (fluorescence units) | Outcome
ng2 (new glue 2) | 1 | 5.46e7 | 5.17e7 | 2.1 | 2.65e7 | 2.15e7 | inactive
lsn (larsen) | 1 | 3.91e7 | 3.57e7 | – | 6.06e7 | 1.79e7 | inactive
CG12984 | 1 | 3.11e7 | 5.11e7 | – | 1.53e7 | 2.25e7 | inactive
Scr (Sex combs reduced) | 1 | 4.12e7 | 2.63e7 | – | 2.16e7 | 1.52e7 | inactive
Scr (Sex combs reduced) | 2 | 3.25e7 | 3.20e7 | – | 1.80e7 | 1.66e7 | inactive
Tsc1 | 1 | 3.37e7 | 3.74e7 | – | 1.72e7 | 1.73e7 | inactive
ebi | 1 | 3.18e7 | – | – | 2.06e7 | – | inactive
Clp (Clipper) | 1 | 2.40e7 | 2.93e7 | – | 1.23e7 | 1.45e7 | inactive
ox (oxen) | 1 | 3.95e7 | 3.23e7 | – | 2.12e7 | 1.47e7 | inactive
CG17068 | 1 | 2.81e7 | 3.16e7 | – | 1.34e7 | 1.39e7 | inactive
CG43980 | 1 | 3.02e7 | 3.31e7 | – | 1.76e7 | 1.56e7 | inactive
CG43980 | 2 | 2.66e7 | 4.45e7 | – | 1.36e7 | 2.10e7 | inactive
CG43980 | 3 | 4.10e7 | 5.09e7 | – | 2.08e7 | 2.52e7 | inactive
cort (cortex) | 1 | 4.20e7 | 1.98e7 | – | 1.81e7 | 9.96e6 | inactive
jef (jet fuel) | 1 | 2.59e7 | 4.34e7 | – | 1.33e7 | 1.93e7 | inactive
Srp9 (Signal recognition particle 9) | 1 | 3.74e7 | 4.97e7 | – | 1.72e7 | 2.29e7 | inactive
CG11313 | 1 | 4.15e7 | 4.50e7 | – | 1.98e7 | 1.78e7 | inactive
mthl2 (methuselah-like 2) | 1 | 3.42e7 | 4.67e7 | – | 1.64e7 | 2.13e7 | inactive
Obp56a (Odorant-binding protein 56a) | 1 | 6.20e7 | 4.41e7 | – | 2.39e7 | 2.19e7 | inactive
CycC (Cyclin C) | 1 | 3.75e7 | 4.90e7 | – | 1.47e7 | 1.97e7 | inactive
CG9519 | 1 | 2.73e7 | 3.10e7 | – | 1.34e7 | 1.44e7 | inactive
Vmat + CG13330 | 1 | 2.83e7 | 3.06e7 | – | 1.21e7 | 1.48e7 | inactive
HSPBAP1 (HSPB1 associated protein 1) | 1 | 2.47e7 | 4.04e7 | – | 1.24e7 | 1.56e7 | inactive
BBS9 (Bardet-Biedl syndrome 9) | 1 | 2.97e7 | 5.11e7 | – | 1.36e7 | 1.89e7 | inactive
Brd8 (Bromodomain containing 8) | 1 | 2.77e7 | 3.19e7 | – | 1.45e7 | 1.64e7 | inactive
Acsf2 (Acyl-CoA synthetase family member 2) | 1 | 3.54e7 | 3.78e7 | – | 1.79e7 | 1.64e7 | inactive
CG1894 | 1 | 3.45e7 | 4.93e7 | – | 1.76e7 | 2.08e7 | inactive
Obp56b (Odorant-binding protein 56b) | 1 | 6.37e7 | 4.63e7 | – | 2.56e7 | 2.28e7 | inactive
nuf (nuclear fallout) | 1 | 3.24e7 | 4.89e7 | – | 1.55e7 | 2.15e7 | inactive
nuf (nuclear fallout) | 2 | 2.63e7 | 2.85e7 | – | 1.59e7 | 1.45e7 | inactive
nuf (nuclear fallout) | 3 | 4.41e7 | 4.45e7 | – | 1.80e7 | 1.76e7 | inactive
nerfin-2 (nervous fingers 2) | 1 | 2.68e7 | 2.39e7 | – | 1.41e7 | 1.27e7 | inactive
PGAP1 (Post-GPI attachment to proteins 1) | 1 | 2.89e7 | 3.39e7 | – | 1.43e7 | 1.59e7 | inactive
CG13155 | 1 | 2.97e7 | 3.55e7 | – | 1.54e7 | 1.67e7 | inactive
rdgB (retinal degeneration B) | 1 | 4.11e7 | 2.65e7 | – | 1.79e7 | 1.39e7 | inactive
CG44014 + CG44013 | 1 | 2.67e7 | 6.05e7 | – | 1.34e7 | 5.93e7 | inactive
Ppi1 (Protein phosphatase 1c interacting protein 1) | 1 | 3.09e7 | 3.89e7 | – | 1.47e7 | 1.83e7 | inactive
CG14183 | 1 | 3.76e7 | 4.99e7 | – | 1.70e7 | 3.11e7 | inactive
Wdr82 (WD repeat domain 82) | 1 | 4.90e7 | 5.88e7 | – | 2.26e7 | 2.41e7 | inactive
Wdr82 (WD repeat domain 82) | 2 | 3.00e7 | 3.48e7 | – | 1.71e7 | 1.86e7 | inactive
